Data from patent US11022604B2, “Dock derived compound against laminin receptor (37 LR) and uses thereof” (Purdue Research Foundation, priority 2017, dated 2021).
“Also recorded” adds a separate entry of the source. At least one structure is not confirmed: it was looked up by name or label, or the drawing left a doubt.

What was measured:
[1] = tested on: Scramble G (same-sequence 20-mer scramble peptide); experiment: Intrinsic tryptophan fluorescence binding assay, Scramble G; conditions: 50 μM Scramble G, titration 0.1 to 100 μM
[2] = tested on: caspase 3/7 activity in PC-3 cells; experiment: Apoptosis assay (caspase 3/7, CaspaseGlo); type: cell-based; conditions: PC-3, 1, 10 or 50 μM, 6, 12, 24 or 48 hours
[3] = tested on: PC-3 cells; experiment: RT-qPCR of PEDF-signaling associated genes; type: cell-based; conditions: PC-3, 50 μM, 48 hours
Description: Expression of PEDF-signaling associated genes from PC-3 cells treated with 50 μM C3, compared to DMSO control and normalized to GAPDH (n=3, mean±SEM). A Holm-Sidak multiple t test was used for statistical analysis (*p<0.05,**O<0.01, ***<0.001). […] Average tube count for 0.1% DMSO, 0.5% DMSO, and 1, 10 and 50 μM treatment with C3 (n=7, mean±SEM). 1 and 10 μM C3 were compared with respective 0.5% DMSO (unpaired two-tailed t test, ****<0.0001). 50 μM C3 was compared with respective 0.1% DMSO (unpaired two-tailed t test p<0.0001).
RT-qPCR. PC-3 cells were seeded in 6 well plates at 3×10^5 cells per well and incubated with 50 μM C3 or DMSO equivalent in 1×RPMI-1640, 1× anti-anti, and 2% FBS (ThermoFisher) for 48 hours. PC-3 cells were lifted using 20 mM EDTA in 1×DPBS and pelleted before isolating total RNA using the RNeasy Mini Kit (Qiagen). 1 μg of RNA per sample was reverse transcribed using the amfiRivert cDNA synthesis master mix (GenDEPOT). Real-time PCR wells contained 1 μL cDNA template, 2×SYBR Green Master Mix (Applied Biosystems), and 20 μM forward and reverse primers. Primer sequences are provided in Table 2. qRT-PCR was performed on an Eppendorf Realplex 2S (Eppendorf), using: 40×95° C. for 3 mins; 95° C. for 3 s; 60° C. for 30 s; 72° C. for 8 s and analyzed using EP Realplex software (version 2.2). Fold changes were normalized to GAPDH using the ddCT method.
Genes involved in migration/invasion and/or extracellular matrix (ECM) communication also were assayed.

[4] = tested on: PC-3 cells; experiment: Label-free quantitative proteomics and Ingenuity Pathway Analysis; type: cell-based, human; conditions: PC-3, 10 μM, 72 hours
Description: FIG. 7. Volcano Plot of Differentially regulated proteins in response to C3 treatment. PC-3 cells were treated with DMSO or 10 μM C3 for 72 hours and proteins were quantified using label free quantitative mass spectrometry. Proteins were graphed by fold change (Difference) and significance (−Log p) using a false discovery rate of 0.05 and an S0 of 0.1.
FIG. 8 Ingenuity pathway analysis of proteomic data from C3 treatment of PC-3 cells.
Wound Healing Assay. PC-3 cells were seeded in 6 well plates at 3×10^5 cells per well in complete media until the cells reached confluency. Three horizontal and three vertical scratches were made in the confluent monolayers using a standard 200 μL pipette tip and cellular debris were removed by washing with 1×DPBS three times. 1×RPMI-1640 supplemented with C3 or DMSO was added and cells were incubated for 48 hours as described previously. 0 hour and 48 hour images were acquired using a bright field microscope (VWR) and repositioning at 48 hours was achieved using x,y stage coordinates after washing the monolayer three times with 1×DPBS to remove debris. Images were uploaded and analyzed for scratch geometry using the tscratch program (96). First, global thresholding was performed, then individual images were manually inspected for single image threshold adjustment and scratch geometries were quantified. C3 Dose Experiment for Proteomics. PC-3 cells were seeded at 2.5×10^5 cells per well in six well plates in complete media and treated with 10 μM C3 or 0.1% DMSO for 72 hours with a media change (also containing compound or vehicle) at the 48 hour mark. After 72 hours, cells were lifted using 20 mM EDTA in 1×DPBS, pelleted, snap frozen in liquid nitrogen and stored at −80° C. until digested for mass spectrometry. A moderate 10 μM dose was chosen from the BrdU and t-scratch functional assays. Sample Digestion. Prior to digestion, cells were lysed using the Barocycler NEP2320 (Pressure Biosciences, Inc.). 50 al of 100 mM ammonium bicarbonate was added to the cells, and they were lysed at 4° C. under 35,000 psi for 45 minutes. 100 ag of protein was isolated for digestion using an acetone precipitation. After removing acetone, samples were reduced and alkylated, and sequence grade Lys-C/Trypsin (Promega) was used to enzymatically digest the extracted protein. All digestions were carried out in the Barocycler NEP2320 at 50° C. under 20,000 psi for 1 hour. Digested samples were cleaned over C18 spin columns (Nest Group) and dried. Resulting pellets were resuspended in 97% purified water/3% acetonitrile (ACN)/0.1% formic acid (FA). LC-MS. The samples were analyzed using the Dionex UltiMate 3000 RSLC Nano System coupled to the Q Exactive™ HF Hybrid Quadrupole-Orbitrap MS (Thermo Scientific). Peptides were loaded onto a trap column (20 μm×350 mm) and washed using a flow rate of 5 l/minute with 98% purified water/2% ACN/0.01% FA. The trap column was then switched in-line with the analytical column after 5 minutes. Peptides were separated using a reverse phase Acclaim PepMap RSLC C18 (75 μm×15 cm) analytical column using a 120 minute method at a flow rate of 300 nl/minute. Mobile phase A consisted of 0.01% FA in water and a mobile phase B consisted of 0.01% FA in 80% ACN. The linear gradient started at 5% B and reached 30% B in 80 minutes, 45% B in 91 minutes, and 100% B in 93 minutes. The column was held at 100% B for the next 5 minutes before being brought back to 5% B and held for 20 minutes. Sample was injected into the QE HF through the Nanospray Flex™ Ion Source fitted with an emission tip from Thermo Scientific. Data acquisition was performed monitoring the top 20 precursors at 120,000 resolution with an injection time of 100 milliseconds. Proteomics Data Processing. Raw files obtained from the QExactive were uploaded using MaxQuant version 1.5.5.1 (97). The following settings were applied in MaxQuant: Label free standard analysis using a multiplicity of 1. […]

[5] = tested on: Human adipose-derived mesenchymal stromal/stem cells (ASC); experiment: Chondrogenesis assay (ASC cell pellets, qPCR); type: cell-based; conditions: 8 days, absence or presence of chondrogenic supplement

O=C(c1cc(F)cc2c1OCOC2)N1CCN(C2c3ccccc3-c3ccccc32)CC1 [Compound C3, [4-(9h-fluoren-9-yl)piperazino](6-fluoro-4h-1,3-benzodioxin-8-yl)methanone]
effect on intrinsic tryptophan fluorescence [1]: did not appreciably alter; also recorded: no appreciable effect
caspase 3/7 activation [2]: not significant at any time point for any dose
CASP3 and BAX mRNA [3]: upregulated as a trend, but these changes were not significant; also recorded: did not observe a significant upregulation
HIF1A mRNA [3]: no concomitant upregulation
MMP2 and MMP9 mRNA [3]: significant (p<0.05) upregulations; also recorded: upregulation
PIXB and PAK1 mRNA [3]: upregulated as a trend, but these changes were not significant
VEGF and THBS 1 mRNA (significance) [3]: significant (p<0.05) upregulations
VEGFR2 mRNA (significance) [3]: downregulations
TGFB and TIMP2 mRNA ([3]; changes not significant): downregulated
ASNS protein level [4]: Upregulation
CDA, cytidine deaminase level [4]: decreased levels
E2 ligases UBE2S and UBE2C level [4]: downregulated; also recorded: down regulation
FTH1 protein level [4]: Upregulation
GPX1 protein level [4]: upregulated
KPNA2 protein level [4]: downregulation
MCM family proteins (MCM-3, MCM-4, MCM-6) level [4]: downregulation
WDHD1 protein level [4]: downregulated
expression of cartilage-specific genes (COL2A1, ACAN and SOX9) [5]: increased expression; also recorded: upregulate the expression of early cartilage-specific genes
